The supplement of paper PMC12067093, “Discovery and optimisation of a covalent ligand for TRIM25 and its application to targeted protein ubiquitination” (Chemical Science, 2025)
The list shows a part of the results.

Compound: Cc1cc(ccc1-c1ccccc1)C(=O)N1CCCN(CC1)C(=O)CCl [compound 10]
Experiment: probe-labelled cysteine peptide fold change vs DMSO (competition) (log2 fold change); higher = less target engagement (more negative = stronger competition)
Details: THP-1, incubation time: 4 h
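Also: competitive profiling in live THP-1 cells: cysteine peptides tagged with an iodoacetamide desthiobiotin (IA-DTB) probe, intensity after compound treatment relative to DMSO-treated cells.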

Row | Target | probe-labelled cysteine peptide fold change (10 µM) | probe-labelled cysteine peptide fold change (50 µM)
1 | NUP153_P49790_860_FKKPEGSWDCELCLVQNK (UniProt P49790) | -0.0226 | -0.228
2 | NUP155_O75694_974_CITDTLQELVNQSK (UniProt O75694) | -0.0265 | -0.00466
3 | NUDT3_O95989_68_EVCEEAGVK (UniProt O95989) | -0.0389 | -0.0139
4 | NUP160_Q12769_1309_VQNNLYHHCVINK (UniProt Q12769) | -0.0693 | 0.339
5 | OGFOD1_Q8N543_154_YEFTDALLCHDDELEGRR (UniProt Q8N543) | -0.116 | 0.095
6 | ODF2_Q5BJF6_708_ECGTLAR (UniProt Q5BJF6) | 0.497 | 0.468
7 | OCRL_Q01968_28_GPLREPCALTLAQR (UniProt Q01968) | 0.0735 | 0.0454
8 | NUP155_O75694_551_LHQEDQACATCLILACSTAACDR (UniProt O75694) | 0.173 | -0.0226
9 | NUMA1_Q14980_1673_EAEQTCR (UniProt Q14980) | 0.0546 | 0.0417
10 | ODF2_Q5BJF6_136_KIDSLMNAVGCLK (UniProt Q5BJF6) | -0.00955 | -0.128
11 | NUFIP1_Q9UHK0_199_CPELDCSFTAHEK (UniProt Q9UHK0) | -0.184 | 0.281
12 | OGDH_Q02218_604_SMSCPSTGLTEDILTHIGNVASSVPVENFTIHGGLSR (UniProt Q02218) | 0.109 | 0.174
13 | ODF2_Q5BJF6_327_DKEVEELLQEIQCEK (UniProt Q5BJF6) | -0.0625 | -0.368
14 | NUP133_Q8WUM0_700+702_EVSQVDTICECLLEHEEQVLR (UniProt Q8WUM0) | 0.452 | -0.273
15 | NUP88_Q99567_608_QLEDLSYCR (UniProt Q99567) | -0.218 | 0.0469
16 | NUP210_Q8TEM1_543_VYVIEPHSMEFAPCQVEAR (UniProt Q8TEM1) | -0.0295 | -0.0838
17 | ODR4_Q5SWX8_77_LDNLDEEWATEHACQVSR (UniProt Q5SWX8) | 0.205 | 0.194
18 | NUP85_Q9BW27_230_EADASPASAGICR (UniProt Q9BW27) | -0.0142 | -0.00907
19 | ODF2_Q5BJF6_327_EVEELLQEIQCEK (UniProt Q5BJF6) | -0.0977 | 0.331
20 | NUMA1_Q14980_65_LDFVCSFLQK (UniProt Q14980) | 0.00767 | 0.238
21 | OAS3_Q9Y6K5_850_AQLEACQQER (UniProt Q9Y6K5) | -0.0629 | 0.221
22 | NUDT19_A8MXV4_220_RFDTAFFLCCLR (UniProt A8MXV4) | -0.131 | -0.0305

Taken from above:
probe-labelled cysteine peptide fold change (10 µM), NUP153_P49790_860_FKKPEGSWDCELCLVQNK (UniProt P49790) reads -0.0226
probe-labelled cysteine peptide fold change (10 µM), NUDT3_O95989_68_EVCEEAGVK (UniProt O95989) reads -0.0389
probe-labelled cysteine peptide fold change (10 µM), NUP85_Q9BW27_230_EADASPASAGICR (UniProt Q9BW27) reads -0.0142
probe-labelled cysteine peptide fold change (10 µM), NUFIP1_Q9UHK0_199_CPELDCSFTAHEK (UniProt Q9UHK0) reads -0.184

(list continues)

Row | Target | probe-labelled cysteine peptide fold change (10 µM) | probe-labelled cysteine peptide fold change (50 µM)
23 | NUP37_Q8NFH4_96_FCTSAADMK (UniProt Q8NFH4) | 0.068 | -0.0419
24 | NUP98_P52948_760_GECIVSDFTIGRK (UniProt P52948) | 0.0932 | -0.0434
25 | NUP160_Q12769_529_NLQQEFWCK (UniProt Q12769) | 0.228 | 0.239
26 | NUBP1_P53384_8_MEEVPHDCPGADSAQAGR (UniProt P53384) | 1.37 | 1.35
27 | NUDT5_Q9UKK9_76_TLHYECIVLVK (UniProt Q9UKK9) | 0.019 | -0.0213
28 | NUDT16L1_Q9BRJ7_171_CQLLFALK (UniProt Q9BRJ7) | -0.0753 | 0.00939
29 | OCRL_Q01968_611_LNDSQYCKPWLR (UniProt Q01968) | -0.146 | -0.914
30 | NUP160_Q12769_1124+1131_QGNCYLAALNCLR (UniProt Q12769) | 0.056 | -0.0329
31 | NUBP2_Q9Y5Y2_177_RELTFCR (UniProt Q9Y5Y2) | -0.0503 | 0.0238
32 | NUP155_O75694_1344_YVENPSQVLNCER (UniProt O75694) | -0.166 | -0.621
33 | NUTF2_P61970_80_IQHSITAQDHQPTPDSCIISMVVGQLK (UniProt P61970) | 0.0102 | -0.0927
34 | NUP98_P52948_760_GECIVSDFTIGR (UniProt P52948) | 0.0918 | 0.222
35 | NUP58_Q9BVL2_252_ALKDENLPPVICQDVENLQK (UniProt Q9BVL2) | -0.348 | -0.312
36 | NUDC_Q9Y266_188_WTQTLSELDLAVPFCVNFR (UniProt Q9Y266) | -0.0295 | 0.0825
37 | NUMB_P49757_176_ECGVTATFDASR (UniProt P49757) | -0.125 | -0.0541
38 | NUP88_Q99567_407_YHCTHEAGVHSVGLTWIHK (UniProt Q99567) | 0.126 | 0.178
39 | OGFOD3_Q6PK18_90_FIEVPCSEDYDSHR (UniProt Q6PK18) | -0.116 | 0.234
40 | NUP210_Q8TEM1_1592_GECTPTQR (UniProt Q8TEM1) | -0.0111 | 0.251
41 | NUB1_Q9Y5A7_400_ACDGNVDHAATHITNRR (UniProt Q9Y5A7) | -0.285 | -0.398
42 | NUF2_Q9BZD4_377_TVIEDCNK (UniProt Q9BZD4) | -0.234 | -0.167
43 | OGFOD1_Q8N543_143_IDLESTIDMSCAK (UniProt Q8N543) | 0.0696 | 0.281
44 | NUP205_Q92621_1216_AQIEQVIANCEHK (UniProt Q92621) | 0.146 | 0.0113

Row | Target | probe-labelled cysteine peptide fold change (10 µM) | probe-labelled cysteine peptide fold change (50 µM)
45 | NUP37_Q8NFH4_311_TLPLCVIGGDHK (UniProt Q8NFH4) | 0.0128 | -0.043
46 | NUP107_P57740_442_QLLPVCDTWEDTVWAYFR (UniProt P57740) | 0.39 | 0.267
47 | NVL_O15381_460_LPQAFDFCHLAHLTPGFVGADLMALCR (UniProt O15381) | -0.11 | 0.025
48 | NUMA1_Q14980_1367_HLCQQLQAEQAAAEK (UniProt Q14980) | -0.0708 | 0.0571
49 | OGT_O15294_472_LKPDFPDAYCNLAHCLQIVCDWTDYDER (UniProt O15294) | 0.115 | 0.163
50 | OGFOD3_Q6PK18_103_RFEGCTPR (UniProt Q6PK18) | -0.088 | 0.067
51 | NUMB_P49757_160_LSHAVGCAFAACLER (UniProt P49757) | -0.25 | -0.0513
52 | NUS1_Q96E22_235_QKRPTDLDVDTLASLLSSNGCPDPDLVLK (UniProt Q96E22) | -0.231 | -0.487
53 | OGDH_Q02218_395_AEQFYCGDTEGK (UniProt Q02218) | -0.0827 | 0.233
54 | OARD1_Q9Y530_38_TDSLAHCISEDCR (UniProt Q9Y530) | 0.0354 | -0.125
55 | NUDT16_Q96DE0_23_HACHALLYAPDPGMLFGR (UniProt Q96DE0) | 0.126 | 0.615
56 | NUP93_Q8N1F7_569_CVSELVIESR (UniProt Q8N1F7) | 0.398 | 0.725
57 | OGDH_Q02218_802_FLQMCNDDPDVLPDLK (UniProt Q02218) | -0.0106 | 0.0622
58 | NUDCD1_Q96RS6_7_MEVAANCSLR (UniProt Q96RS6) | 0.322 | -0.184
59 | OPA1_O60313_786_TQEQCVHNETK (UniProt O60313) | -0.138 | -0.322
60 | NUP133_Q8WUM0_1075_LEILCK (UniProt Q8WUM0) | 0.221 | 0.251
61 | NUDT6_P53370_44_NPPVGACDLQGELDR (UniProt P53370) | -0.344 | -0.949
62 | OCRL_Q01968_104_FEIPDEEHCLK (UniProt Q01968) | -0.0346 | 0.129
63 | NUTF2_P61970_114_NINDAWVCTNDMFR (UniProt P61970) | 0.0967 | 0.0898
64 | OCIAD1_Q9NX40_38_VFAECNDESFWFR (UniProt Q9NX40) | 0.0969 | 0.145
65 | OGT_O15294_323_LCPTHADSLNNLANIKR (UniProt O15294) | 0.0634 | -0.411
66 | NUBP1_P53384_25_GASCQGCPNQR (UniProt P53384) | -0.166 | -0.851

Row | Target | probe-labelled cysteine peptide fold change (10 µM) | probe-labelled cysteine peptide fold change (50 µM)
67 | NUP107_P57740_78_QPDISCILGTGGK (UniProt P57740) | -0.271 | -0.718
68 | NVL_O15381_431_FDREICLGIPDEASR (UniProt O15381) | -0.0463 | 0.00696
69 | OLA1_Q9NTK5_75_VPVPDERFDFLCQYHK (UniProt Q9NTK5) | 0.24 | -0.00208
70 | NUBP1_P53384_256_ESQIFPPTTGGAELMCQDLEVPLLGR (UniProt P53384) | -0.0464 | -0.0989
71 | NUP133_Q8WUM0_702_EVSQVDTICECLLEHEEQVLR (UniProt Q8WUM0) | 0.107 | 0.18
72 | OCIAD2_Q56VL3_106_VSYIGVCQSK (UniProt Q56VL3) | -0.21 | -0.000731
73 | NUDCD2_Q8WVJ2_45_AQDIQCGLQSR (UniProt Q8WVJ2) | 0.108 | 0.0196
74 | OGA_O60502_618_FEEMCGLVMGMFTR (UniProt O60502) | 0.0527 | 0.0614
75 | NUP160_Q12769_605_DVICLIK (UniProt Q12769) | 0.651 | -0.214
76 | NUP107_P57740_749_EHLCIR (UniProt P57740) | 0.0299 | 0.19
77 | NUDCD3_Q8IVD9_260_CVLVNLSK (UniProt Q8IVD9) | 0.148 | 0.155
78 | NUP160_Q12769_1166_NHDGECTAAPTNR (UniProt Q12769) | -0.241 | -0.27
79 | OGDH_Q02218_956_YPNAELAWCQEEHK (UniProt Q02218) | -0.131 | -0.149
80 | OAS1_P00973_25_FIEDYLLPDTCFR (UniProt P00973) | -0.402 | -0.388
81 | NUMA1_Q14980-4_1729_SREPQAKPQLDLSIDSLDLSCEEGTPLSITR (UniProt Q14980) | 0.0396 | -0.189
82 | NUP153_P49790_753_CVACETPKPGTCVK (UniProt P49790) | -0.14 | -1.02
83 | NUBP2_Q9Y5Y2_54_VGILDVDLCGPSIPR (UniProt Q9Y5Y2) | 0.00457 | 0.162
84 | OCIAD2_Q56VL3_46_ECQEESFWK (UniProt Q56VL3) | -0.0156 | 0.137
85 | NUP133_Q8WUM0_641_LLLCEHAEK (UniProt Q8WUM0) | -0.158 | -0.252
86 | NUP210_Q8TEM1_605_LPPGSEHCSGIR (UniProt Q8TEM1) | 0.0329 | 0.166
